Experimental data reported in PubChem BioAssay AID493014 (National Center for Advancing Translational Sciences (NCATS), 2011).
Some of the results follow. These are further read-outs of the screen, such as a control signal, another cell line or another target. No call is given for them. Compounds called inactive in the main read-out are mostly missing here. The note in brackets gives the kind of curve behind each potency; many fits are weak. Square brackets hold non-standard residues; d marks the D form. Peptide text beside a SMILES is read from it. * marks the point of attachment. ξ: configuration not given here. Cbz = O=C(OCc1ccccc1)*; ξA = CC(N)C(=O)O

Assay: qHTS Assay to Find Inhibitors of Chronic Active B-Cell Receptor Signaling
Settings: ABC-DLBCL IkBa-CBG/CBR reporter, luminescence ratio (green luciferase fused to IkBa over red control in TMD8 lymphoma cells), 4 h
Summary of the method: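 Cell line TMD8 (human ABC DLBCL), stably expressing tet-inducible CBG68-IkBa fusion and CBR; IMDM/0.5% FBS; cpd up to 46 uM; dox induction, 4 h, 37C/5% CO2; dual luminescence; green/red ratio; MG132 control.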

[1] = measured here: CBR red luminescence, cell number

Compound	AC50 [1]	AC50 (measured here: IkBa-CBG green luminescence)
Cc1cc(C)nc(NC(=O)c2cc3ccccc3o2)n1	15.8 µM [falling, single point]	–
O=C(Nc1nnc(C2=COCCO2)o1)c1ccc(Br)cc1	35.5 µM [falling, single point]	–
O=C(N1CCCCCC1)N1CCN(S(=O)(=O)N2CCCCC2)CC1	0.731 µM [rising, partial curve, poor fit]	6.51 µM [rising, partial curve, poor fit]
COc1cc(/C=C/C(=O)c2ccc3c(c2)OCCO3)cc(OC)c1OC	17.8 µM [falling, partial curve, poor fit]	–
Cc1cc(/C=C2/C(=O)NN(c3ccccc3)C2=O)c(C)n1-c1cccc(O)c1	9.2 µM [falling, partial curve, poor fit]	–
O=C(NNC(=O)c1ccc(Cl)c(Cl)c1)c1cccnc1	17.8 µM [falling, partial curve]	–
CCCS(=O)(=O)NCCc1cc2cc(C)c(C)cc2[nH]c1=O	2.31 µM [rising, full curve]	–
O=C(c1ccc(-c2nc3ccccc3s2)o1)N1CCN(c2ccccc2O)CC1	10 µM [falling, partial curve, poor fit]	–
CCOC(=O)CNC(=O)c1sc(NC(=O)c2cccc(F)c2)nc1C	0.291 µM [falling, partial curve, poor fit]	–
COc1ccc(C(=O)Nc2ccccc2C(=O)NCCN2CCOCC2)cc1	0.00461 µM [rising, full curve, poor fit]	–
CC(C)Cn1c2c(c(O)c(C(=O)Nc3ccc(F)cc3)c1=O)CCCC2	2.24 µM [rising, full curve, poor fit]	–
CCCC(C(=O)Nc1cccc(S(=O)(=O)N2CCCC2)c1)c1ccccc1 (centres undefined)	16.4 µM [falling, single point]	–
CC(OC(=O)c1cccnc1SCc1cc(=O)n2ccccc2n1)c1ccccn1 (centres undefined)	8.2 µM [falling, partial curve, poor fit]	–
CCOc1ccc(CCNC(=O)COC(=O)COc2ccc(Cl)cc2)cc1OCC	3.66 µM [rising, full curve, poor fit]	–
COc1ccc(N2CC(NC(=O)c3cccs3)CC2=O)cc1 (centres undefined)	17.8 µM [falling, single point]	–
COc1ccccc1NC(=O)Cc1nnc(SCC(=O)c2ccc(F)cc2)n1C	2 µM [falling, partial curve, poor fit]	–
O=S(=O)(c1cccc(C(F)(F)F)c1)N(CCCN1CCOCC1)Cc1cccs1	35.5 µM [falling, single point]	–
Cc1nc(NCCc2cnc[nH]2)c2oc3ccccc3c2n1	1 µM [falling, full curve, poor fit]	–
C(=C\c1ccco1)/c1ccc2ccccc2n1	1.26 µM [rising, full curve, poor fit]	–
O=C(NC(=S)Nc1ccc2c(c1)OCCO2)c1cccc(Br)c1	4.61 µM [rising, partial curve, poor fit]	–
COc1ccccc1Nc1nnc(SCC(=O)NC(=O)Nc2ccc3c(c2)OCCO3)s1	0.164 µM [rising, full curve, poor fit]	–

Compound	AC50 [1]	AC50 (measured here: IkBa-CBG green luminescence)
CCCCn1nnc(NC(=O)Cc2ccc(Cl)cc2)n1	18.4 µM [falling, single point]	–
O=[N+]([O-])c1cc(Br)c(O)c(C=Nc2ccc(N3CCOCC3)cc2)c1	15.8 µM [rising, partial curve, poor fit]	–
O=C(O)CCC(=O)Nc1ccc2c(c1)oc1ccccc12	0.058 µM [falling, full curve]	–
COc1ccc(-c2cc(C(F)(F)F)n3nc(C(=O)N4CCN(C(=O)c5ccco5)CC4)cc3n2)cc1	10 µM [rising, partial curve, poor fit]	–
CCOc1ccc(S(=O)(=O)N2CCOCC2)cc1NC(=O)CN1C(=O)NC(C)(c2ccccc2)C1=O (centres undefined)	14.6 µM [rising, single point]	–
Cc1ccccc1NC(=O)c1ccc(S(=O)(=O)C(F)F)cc1	29.1 µM [falling, single point]	–
COC(=O)c1cc(O)c(OCc2ccccc2)c(O)c1	14.6 µM [rising, partial curve, poor fit]	–
Cc1cc(/C=N/NC(=O)c2ccc(O)cc2)c(C)n1CC(C)C	1.78 µM [falling, full curve]	–
CCS(=O)(=O)N1CCN(c2ccc([N+](=O)[O-])c(NCc3cccnc3)c2)CC1	20 µM [rising, partial curve]	–
CCCc1ccc(C(=O)[C@@H]2[C@@H](C(C)=O)N3c4ccc(F)cc4C=C[C@@H]3[C@@]23C(=O)Nc2ccccc23)cc1	0.316 µM [rising, partial curve, poor fit]	–
COc1cccc(NC(=O)CN(C)C(=O)c2csc3c2CCCC3)c1	23.1 µM [falling, single point]	–
CCc1ccccc1NC(=O)c1cnn(-c2ccccc2)c1C	10 µM [falling, partial curve]	–
C=CCn1c(SCc2c(C)noc2C)nc2sc3c(c2c1=O)CCCC3	6.31 µM [rising, single point]	–
COc1ccc(NC(=O)c2cccs2)cc1OC	23.1 µM [falling, partial curve]	–
O=C(NCc1ccccc1F)c1ccc(S(=O)(=O)Nc2cccc(C(F)(F)F)c2)cc1	29.1 µM [falling, single point]	–
O=C(N/N=C/c1ccc[nH]1)c1ccc(Cl)cc1	29.1 µM [falling, single point]	–
O=C1CC(Cc2ccccc2)C(=O)N1CCc1ccc2c(c1)OCO2 (centres undefined)	2.91 µM [rising, single point]	–
COc1ccc(-c2nn(CCC#N)cc2C=C(C#N)C#N)cc1	10 µM [falling, single point]	–
O=C(CN(C(=O)Cn1nnc(-c2ccc(F)cc2)n1)c1ccc(F)cc1)NC1CCCC1	39.8 µM [falling, partial curve, poor fit]	–
COc1ccccc1C1=NOC(Cn2c(NCCCO)nc3c2c(=O)n(C)c(=O)n3C)C1 (centres undefined)	3.98 µM [rising, partial curve, poor fit]	–
CCOc1ccccc1N1CCN(C(=O)CSc2ccc3c(c2)OCCO3)CC1	29.1 µM [rising, single point]	–

Compound	AC50 [1]	AC50 (measured here: IkBa-CBG green luminescence)
O=C(NNC1=Nc2ccccc2SC1)c1ccc(F)cc1	0.501 µM [rising, full curve]	–
CCCCNc1nc(-c2ccccc2)nc(-n2ccnc2)n1	0.103 µM [falling, full curve, poor fit]	–
Cc1c(C(=O)OCC(=O)Nc2cccc(S(N)(=O)=O)c2)oc2c1ccc1ccccc12	35.5 µM [falling, single point]	–
CCOC(=O)c1c(C)oc2ccc(NS(=O)(=O)c3cccs3)cc12	23.1 µM [falling, single point]	–
CCN1CCN(c2ccc(S(=O)(=O)N3CCCCC3)cc2NC(=O)COc2cc(C)ccc2Cl)CC1	29.1 µM [falling, single point]	–
NNC(=S)Nc1ccc(OC(F)(F)F)cc1	5.01 µM [rising, full curve, poor fit]	–
Cc1ccc(-n2cc(CNCCCn3ccnc3C)c(-c3ccc(F)cc3)n2)cc1	35.5 µM [falling, single point]	–
CC(=O)Nc1ccc(C(=O)CN2C(=O)CSC2=O)cc1	12.6 µM [rising, partial curve, poor fit]	–
Cc1ccc(C)c(NC(=S)NCCSc2ccc(Cl)cc2)c1	9.2 µM [rising, partial curve, poor fit]	–
CCOC(=O)C1(Cc2cccc(Cl)c2)CCCN(C2CCN(C(C)=O)CC2)C1 (centres undefined)	11.2 µM [falling, partial curve, poor fit]	–
NC(=O)N/N=C\c1cccs1	35.5 µM [rising, single point]	–
COc1cccc(C2=CC(c3ccccc3F)n3ncc(C(=O)Nc4ccc(C)cc4)c3N2)c1 (centres undefined)	35.5 µM [falling, single point]	–
O=C1CCCCC1Sc1nnc(-c2ccc3c(c2)OCO3)o1 (centres undefined)	6.31 µM [falling, partial curve]	–
Cc1cc(C(=O)OCC(=O)N2CC(C)OC(C)C2)c(C)n1-c1ccccc1 (centres undefined)	23.1 µM [falling, single point]	–
CCOC(=O)c1cc(-c2ccccc2)nc2nc(N3CCCCC3)sc12	0.291 µM [rising, full curve, poor fit]	–
O=C(CCCN1C(=O)/C(=C/c2ccccc2Cl)SC1=S)NNC(=O)c1ccc(Cl)cc1Cl	0.891 µM [falling, full curve, poor fit]	–
Cc1ccccc1NC(=O)COc1ccc2c(c1)OC(C)(C)CC2=O	11.2 µM [falling, partial curve, poor fit]	–
Nc1[nH]n2c(=O)cc(-c3ccccc3)nc2c1N=Nc1ccccc1	4.47 µM [falling, full curve, poor fit]	–
COc1ccc(S(=O)(=O)N(CC(=O)N2CCOCC2)c2cc(Cl)ccc2OC)cc1OC	35.5 µM [rising, single point]	–
COc1cc(C(=O)N/N=C/c2ccc3c(c2)c2ccccc2n3C)ccc1O	6.31 µM [falling, full curve]	–
COC(=O)CNC(=O)C(C)NC(=O)CNC(=O)OCc1ccccc1 (stereo not drawn) (Cbz-Gly-[ξA]-Gly-OMe)	11.2 µM [rising, partial curve, poor fit]	–

Grouped by structure: the compounds so far containing a nitro group on carbon (2)
Compound	AC50 [1]	AC50 (measured here: IkBa-CBG green luminescence)
O=[N+]([O-])c1cc(Br)c(O)c(C=Nc2ccc(N3CCOCC3)cc2)c1	15.8 µM [rising, partial curve, poor fit]	–
CCS(=O)(=O)N1CCN(c2ccc([N+](=O)[O-])c(NCc3cccnc3)c2)CC1	20 µM [rising, partial curve]	–
